Laboratory results reported in ChEMBL document CHEMBL1124222 (J Med Chem, 1988).

Chains of the proteins cited; added tags and fusions are not shown.
UniProt P61169, whole entry: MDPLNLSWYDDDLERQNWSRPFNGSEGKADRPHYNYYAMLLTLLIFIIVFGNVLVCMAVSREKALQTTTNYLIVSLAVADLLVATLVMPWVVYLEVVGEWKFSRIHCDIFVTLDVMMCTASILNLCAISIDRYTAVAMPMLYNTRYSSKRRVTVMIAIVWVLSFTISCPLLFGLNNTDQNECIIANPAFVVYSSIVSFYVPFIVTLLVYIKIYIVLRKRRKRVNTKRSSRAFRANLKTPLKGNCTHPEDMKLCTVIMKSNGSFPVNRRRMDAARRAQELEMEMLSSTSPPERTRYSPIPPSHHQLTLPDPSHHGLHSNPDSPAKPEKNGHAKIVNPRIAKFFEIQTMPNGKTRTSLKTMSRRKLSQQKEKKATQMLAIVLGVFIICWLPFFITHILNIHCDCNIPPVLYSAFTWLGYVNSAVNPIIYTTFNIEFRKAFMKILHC

Biological target: D(2) dopamine receptor (Rattus norvegicus, UniProt P61169)

Ki: 12.9 µM
Compound: CC(C)NCC(O)COc1cccc2ccccc12 (stereo unspecified) [PROPRANOLOL]
